# For at least one compound, name, drawing or mass did not settle the structure.
# Test system: MDA-MB-468 cells
# Experiment: Split luciferase reporter for cytosolic Rapa
# Assay type: cell-based
# From the text: FIGS. 22A-22B: FAF delays the access of Rapa to the cytosol in a manner consistent with macropinocytosis. FIG. 22A: MDA-VB-468 cells were transfected with a split luciferase reporter that enables the specific detection of Rapa within the cytosol. […] Free Rapa luminescence kinetics were unaffected by amiloride. (Mean±95% CI, n=6).
# To understand drug release, cells were engineered to express a luciferase reporter for cytosolic Rapamycin. […] This is evidence that FAF dominates the intracellular delivery of rapalogues.
smiles,measurement,setting,value
"CO[C@H]1C[C@@H]2CC[C@@H](C)[C@@](O)(O2)C(=O)C(=O)N2CCCC[C@H]2C(=O)O[C@H]([C@H](C)C[C@@H]2CC[C@@H](O)[C@H](OC)C2)CC(=O)[C@H](C)/C=C(\C)[C@@H](O)[C@@H](OC)C(=O)[C@H](C)C[C@H](C)/C=C/C=C/C=C/1C [Rapa, Rapamycin, reference compound]",onset of luciferase luminescence (cytosolic Rapa),,rapid luciferase activity
same,effect of amiloride on cytosolic detection of Rapa,macropinocytosis inhibitor amiloride added,unaffected

# Source: US11464867B2, “Multimeric elastin-like polypeptides” (University of Southern California, priority 2018, dated 2022)
